Laboratory results as given in PMC8216277.
Results are given in words; binding and its absence hold for the method and conditions named. Some binding calls cover weakened binding; strength is not graded here.

Sequences of proteins named here, by UniProt entry; tags and fusion partners are left off.
UniProt P62304: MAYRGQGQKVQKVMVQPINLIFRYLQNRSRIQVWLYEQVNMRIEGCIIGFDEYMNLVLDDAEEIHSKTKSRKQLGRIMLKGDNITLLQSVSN
UniProt P62308: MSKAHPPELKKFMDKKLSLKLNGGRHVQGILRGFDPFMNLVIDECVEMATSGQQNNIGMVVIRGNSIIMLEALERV

Biological target: Sm E (UniProt P62304)
Test: production and purification as a complex; Sm proteins produced in bacteria as heterodimers or trimer (six cultures for ten proteins), purified by chromatography; details in the supplementary materials

- binding: binds
Substance: Sm G (from UniProt P62308 1-76)
